Results on 1 substance are retold here after patent EP3470428A1.

Sequences of proteins named here, by UniProt entry; tags and fusion partners are left off. A change or cut given only in a name is not applied to a line headed by its entry. Residues count along the entry.
UniProt Q07011: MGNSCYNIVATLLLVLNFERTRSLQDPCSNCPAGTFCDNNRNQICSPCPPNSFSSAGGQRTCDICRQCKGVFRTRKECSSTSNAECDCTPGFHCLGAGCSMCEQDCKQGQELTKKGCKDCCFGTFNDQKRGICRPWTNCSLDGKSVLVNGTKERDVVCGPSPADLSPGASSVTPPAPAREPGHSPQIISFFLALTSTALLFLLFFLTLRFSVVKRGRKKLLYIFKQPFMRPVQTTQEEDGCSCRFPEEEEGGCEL
UniProt P41273, residues 50-254: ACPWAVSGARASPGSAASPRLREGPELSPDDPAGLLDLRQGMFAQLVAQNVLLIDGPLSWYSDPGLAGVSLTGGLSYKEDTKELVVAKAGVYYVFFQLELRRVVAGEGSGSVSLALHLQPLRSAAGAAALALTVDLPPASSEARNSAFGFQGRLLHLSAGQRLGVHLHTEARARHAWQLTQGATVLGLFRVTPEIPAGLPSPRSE

The target of the assay is human CD137 extracellular domain (Peprotech, cat. 310-15-1MG) (human) (UniProt Q07011). As to the kind of experiment: flow cytometry; binder captured on protein G beads, R-PE labeled CD137 ECD. (In general: A flow cytometer gives signals particle by particle.)

These are yes or no findings as the source states them, for the method shown. Some binding calls cover weakened binding; strength is not graded here.

Regarding “CD137L ECD fused to the Fc part of a human IgG1 (from UniProt P41273 50-254) (Fc fusion)”, the binding entry is listed as “binds”.
